Library screen at single concentrations

Amino acid sequences for entries named in this document (tags omitted).
UniProt P9WPC5, whole entry: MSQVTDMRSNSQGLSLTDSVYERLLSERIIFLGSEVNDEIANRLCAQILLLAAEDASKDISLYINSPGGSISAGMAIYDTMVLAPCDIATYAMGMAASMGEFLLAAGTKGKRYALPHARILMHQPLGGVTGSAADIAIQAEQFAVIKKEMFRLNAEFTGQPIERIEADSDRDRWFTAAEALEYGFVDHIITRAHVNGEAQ
UniProt P9WPC3, whole entry partner: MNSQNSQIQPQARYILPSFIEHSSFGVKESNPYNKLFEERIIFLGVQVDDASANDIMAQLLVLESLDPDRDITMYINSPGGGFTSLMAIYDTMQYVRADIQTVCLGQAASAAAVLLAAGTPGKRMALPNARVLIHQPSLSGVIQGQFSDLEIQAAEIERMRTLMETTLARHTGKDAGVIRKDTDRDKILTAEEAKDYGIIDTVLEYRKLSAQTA
UniProt P9WNZ1, whole entry: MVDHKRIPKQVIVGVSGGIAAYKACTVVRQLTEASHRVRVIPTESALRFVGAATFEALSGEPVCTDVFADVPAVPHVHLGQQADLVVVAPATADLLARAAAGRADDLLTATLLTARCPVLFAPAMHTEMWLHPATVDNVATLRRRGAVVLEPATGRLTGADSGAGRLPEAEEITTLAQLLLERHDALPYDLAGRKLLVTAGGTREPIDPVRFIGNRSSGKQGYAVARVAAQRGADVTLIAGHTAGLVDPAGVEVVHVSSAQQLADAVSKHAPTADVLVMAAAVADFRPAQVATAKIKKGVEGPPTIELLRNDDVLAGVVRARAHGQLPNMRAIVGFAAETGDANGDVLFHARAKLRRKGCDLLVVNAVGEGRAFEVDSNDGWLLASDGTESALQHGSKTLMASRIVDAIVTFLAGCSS

Measurements from “University of Dundee, Small-Polar-MMV Screening Library” (2021), ChEMBL document CHEMBL3988442.

ClpP1P2: 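Protease assay of ClpP1P2, read by the AMC dye that it sets free. Target: ClpP1P2, Mycobacterium tuberculosis (UniProt P9WPC5 and UniProt P9WPC3). Compounds at 50 µM. Higher reads as stronger inhibition, judged from the few compounds that gave an IC50. Most other retested compounds had strongly negative values. Of about 69,000 compounds tested this way, about 10 (0.015%) reached 50% or more in at least one test.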
CoaBC: 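Coenzyme A biosynthesis protein CoaBC, Mycobacterium tuberculosis (UniProt P9WNZ1). Enzyme assay of CoaBC with a phosphate dye (Biomol Green) read at 650 nm. Compounds at 30 µM. Higher reads as stronger inhibition, judged from the few compounds that gave an IC50. Most strong results did not repeat in a second test. Of about 67,000 compounds tested this way, about 40 (0.06%) reached 50% or more in at least one test.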
Toxoplasma: 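Assay of Toxoplasma gondii numbers, read through their beta-galactosidase reporter with a colour substrate. Compounds at 10 µM. Higher reads as fewer parasites (inferred from which compounds were picked for retests). Of about 67,000 compounds tested this way, about 260 (0.38%) reached 50% or more in at least one test.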

Each number is a percent effect as filed. How 0% and 100% were set is not recorded. Most values in the screen are low, and negative values occur. The compounds are a random part of those screened. A dash means the value is not listed here; it may have been measured.

structure	ClpP1P2	CoaBC	Toxoplasma
COCCn1ccc2ccc(C(=O)N3CCN(C(C)=O)CC3)cc21	-31.51%	1.453%	6.179%
Cc1nn(C)c(C)c1C1CCCN1c1ncnc2[nH]ccc12 (configuration not stated)	-3.836%	0.2141%	10.26%
COC(=O)N(C)CCCC(=O)Nc1[nH]nc(-c2ccncc2)c1C	2.564%	-0.3241%	2.301%
CN1CCC2(Cc3ccccc3NC2=O)C1 (configuration not stated)	11.01%	2.648%	5.403%
CNC(=O)CS(=O)(=O)C1CCN(S(=O)(=O)c2cccnc2)CC1	-9.925%	1.873%	-5.656%
COC[C@@]12CCO[C@@H]1CCN(C(=O)C1CCOCC1)C2	3.274%	6.404%	-
Cc1ccnc(N2CCC(NCCOc3ccccc3)CC2)n1	5.815%	-11.9%	-1.669%
O=C(c1cccc(Cl)c1)N1CC[C@@H](N2CCC(O)CC2)[C@H](O)C1	-19.79%	9.829%	1.299%
CC(C)c1nnc2n1CCN(C(=O)CN1CCc3sccc3C1)C2	2.909%	-6.649%	0.7057%
COCCN1C(=O)[C@]2(CC[C@@H]3CN(C(=O)NC(C)C)C[C@@H]32)N=C1C	1.181%	1.613%	-
O=C(CCc1ccc(F)cc1)NCc1ccnc(NC2CC2)c1	-0.5209%	2.419%	-2.554%
CC1COCCN1C(=O)NCCn1ccnc1 (configuration not stated)	-7.24%	11.07%	-0.6715%
O=C(CCCc1ccc(Cl)cc1)N1CCN(C(=O)c2ccc[nH]2)CC1	2.434%	4.121%	14.16%
COc1cc(F)ccc1N(C)Cc1ccncc1	11.15%	2.288%	-1.265%
O=C(c1c[nH]c2ncccc12)N(Cc1ccco1)C1CCCC1	5.543%	8.238%	3.895%
N#Cc1ccccc1CN1CCC2(CC1)CC(c1ccccc1)C(=O)N2 (configuration not stated)	-3.578%	9.6%	-6.635%
COCCc1noc(CN2CCN(CC(O)c3ccccc3)CC2)n1 (configuration not stated)	0.6291%	0.2611%	-1.631%
CC(C)[C@H]1CN(CCS(C)(=O)=O)C[C@@H]1NC(=O)c1ccc(=O)[nH]c1	-5.867%	1.096%	-0.8738%
COC[C@@H]1CC[C@H]2[C@H](CCN2S(=O)(=O)c2ccc(OC)cc2)O1	0.2411%	3.475%	-
CC(C)NCc1nc(-c2ccc3c(c2)OCO3)c[nH]1	-0.6699%	-6.349%	-
CCn1ccc(C(=O)NCCCN2CCOCC2)n1	8.917%	-9.545%	-0.3723%
CC(C)(C)C(=O)NCCC(=O)Nc1cc(C#N)cn1C(C)(C)C	-4.412%	5.353%	-9.949%
[H][C@]12CC[C@]([H])(CN(C(=O)C3CCC3)C1)N(C(=O)c1cccc(C#N)c1)C2	-	-	-8.11%
Cc1ccc(CC(=O)NCC(O)c2cc(Cl)cc(Cl)c2)cn1 (configuration not stated)	5.305%	-	3.776%
NC(=O)CCCNC(=O)c1cc(Br)c2c(c1)OCCO2	-13.94%	1.353%	-
Cc1nc2c(c(N[C@H](C(N)=O)C(C)C)n1)Cc1ccccc1OC2	-5.835%	7.403%	6.182%
CN(C)C(=O)CN1CCOCC2(CCN(CC3CCOCC3)CC2)C1	11.49%	6.554%	-
Cc1cc(C)n(CC(=O)N2CCC(c3ccn4nccc4n3)CC2)n1	-20.23%	-1.37%	-8.136%
Cc1cncc(C(=O)N2CCCC(O)(CN3CCCC3)C2)c1 (configuration not stated)	4.26%	15.18%	-3.244%
CN(CC1CC1)C(=O)CN1CCCC1c1cnn(C)c1 (configuration not stated)	2.837%	7.335%	3.744%
Cc1nc(C)n(CC2CCCN2CCOc2ccc(C#N)cc2)n1 (configuration not stated)	-2.306%	6.17%	-
CC(C)NCc1cc2n(n1)CCN(C1CCCCC1)C2	15.63%	-23.69%	0.46%
CN(Cc1cn2c(n1)CN(C1CCOC1)CC2)Cc1ccco1.O=C(O)C(F)(F)F.O=C(O)C(F)(F)F (configuration not stated)	-	-	2.137%
CCn1c(C2CCNCC2)nn(CCn2cncn2)c1=O	2.18%	5.178%	-0.764%
CC(C)C(=O)NC1CC2(CCN(CC(=O)N(C)C)CC2)c2ccccc21.O=C(O)C(F)(F)F (configuration not stated)	-	-	-23.73%
O=C(NCc1cccnc1-n1cncn1)c1cc(Cl)ccn1	26.96%	-13.59%	30.56%
CCC(O)CN1CCN(C(=O)c2ccc(N(C)C)nn2)CC1 (configuration not stated)	-19.71%	-5.682%	4.572%
CCOc1ccc(C(=O)NCc2ccnc(N3CCCC3)c2)cn1	-5.405%	4.747%	3.071%
Fc1ccc(CN2CCn3cc(Cn4cccn4)nc3C2)cc1.O=C(O)C(F)(F)F	-	-	6.807%
Cc1ccccc1C(=O)N1CCC2(CCCN2CCN(C)C)CC1.O=C(O)C(F)(F)F.O=C(O)C(F)(F)F	-	-	14.29%
CC(=O)N1CCCn2nc(CNS(=O)(=O)c3cc(C)cs3)cc2C1	-17.47%	-0.8772%	0.4289%
O=C(CN(CC(O)c1ccc(F)cc1)C1CC1)Nc1cccnc1 (configuration not stated)	8.214%	0.3841%	17.09%
COc1cccc(/C=C/CCN2CCN(S(C)(=O)=O)CC2)c1	-1.735%	-1.595%	6.321%
Cc1nc(CNC2CCCN(c3cccnn3)C2)no1 (configuration not stated)	6.773%	3.776%	-5.243%
C[C@H]1C[C@@H]2CCN(Cc3nccs3)C[C@H]2O1	-9.675%	-	-
CC(=O)c1cccc(NC(=O)NCCCc2nc(C(C)C)no2)c1	-9.13%	-3.505%	-1.142%
Cc1cccc(CN2C[C@@H]3CN(C(=O)NC(C)C)C[C@@H]3C2=O)n1	-8.067%	5.792%	-
O=S(=O)(NCC1(O)CCOc2ccccc21)c1ccccc1Br (configuration not stated)	-12.24%	3.121%	15.79%
Cc1ccsc1C(=O)N1CC(C(=O)N2CCCC2)C2(CCOCC2)C1 (configuration not stated)	-12.98%	-4.842%	0.3386%
CCSCCC(C)N(C)C(=O)c1cc(C)on1 (configuration not stated)	2.89%	3.182%	2.425%

The first 5 entries again:

structure	ClpP1P2	CoaBC	Toxoplasma
COCCn1ccc2ccc(C(=O)N3CCN(C(C)=O)CC3)cc21	-31.51%	1.453%	6.179%
Cc1nn(C)c(C)c1C1CCCN1c1ncnc2[nH]ccc12 (configuration not stated)	-3.836%	0.2141%	10.26%
COC(=O)N(C)CCCC(=O)Nc1[nH]nc(-c2ccncc2)c1C	2.564%	-0.3241%	2.301%
CN1CCC2(Cc3ccccc3NC2=O)C1 (configuration not stated)	11.01%	2.648%	5.403%
CNC(=O)CS(=O)(=O)C1CCN(S(=O)(=O)c2cccnc2)CC1	-9.925%	1.873%	-5.656%